We go through two substances from PMC10897203.

The chains behind the UniProt entries cited, without tags or fusion partners.
UniProt P61765: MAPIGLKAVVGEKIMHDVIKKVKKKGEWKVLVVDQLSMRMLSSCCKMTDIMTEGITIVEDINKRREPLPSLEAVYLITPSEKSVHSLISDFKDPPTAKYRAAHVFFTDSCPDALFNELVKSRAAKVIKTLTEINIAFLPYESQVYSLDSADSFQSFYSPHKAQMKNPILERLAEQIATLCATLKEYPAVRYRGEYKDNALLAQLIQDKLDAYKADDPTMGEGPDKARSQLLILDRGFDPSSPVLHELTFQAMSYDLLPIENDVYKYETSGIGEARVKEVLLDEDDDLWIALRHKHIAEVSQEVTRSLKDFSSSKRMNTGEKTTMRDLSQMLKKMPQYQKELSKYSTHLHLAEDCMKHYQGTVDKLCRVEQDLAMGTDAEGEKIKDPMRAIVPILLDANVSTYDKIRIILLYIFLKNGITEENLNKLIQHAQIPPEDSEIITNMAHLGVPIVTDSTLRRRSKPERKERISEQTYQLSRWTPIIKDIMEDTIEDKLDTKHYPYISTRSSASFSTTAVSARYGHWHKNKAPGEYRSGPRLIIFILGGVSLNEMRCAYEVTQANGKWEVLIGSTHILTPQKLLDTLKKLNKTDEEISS
UniProt O35274: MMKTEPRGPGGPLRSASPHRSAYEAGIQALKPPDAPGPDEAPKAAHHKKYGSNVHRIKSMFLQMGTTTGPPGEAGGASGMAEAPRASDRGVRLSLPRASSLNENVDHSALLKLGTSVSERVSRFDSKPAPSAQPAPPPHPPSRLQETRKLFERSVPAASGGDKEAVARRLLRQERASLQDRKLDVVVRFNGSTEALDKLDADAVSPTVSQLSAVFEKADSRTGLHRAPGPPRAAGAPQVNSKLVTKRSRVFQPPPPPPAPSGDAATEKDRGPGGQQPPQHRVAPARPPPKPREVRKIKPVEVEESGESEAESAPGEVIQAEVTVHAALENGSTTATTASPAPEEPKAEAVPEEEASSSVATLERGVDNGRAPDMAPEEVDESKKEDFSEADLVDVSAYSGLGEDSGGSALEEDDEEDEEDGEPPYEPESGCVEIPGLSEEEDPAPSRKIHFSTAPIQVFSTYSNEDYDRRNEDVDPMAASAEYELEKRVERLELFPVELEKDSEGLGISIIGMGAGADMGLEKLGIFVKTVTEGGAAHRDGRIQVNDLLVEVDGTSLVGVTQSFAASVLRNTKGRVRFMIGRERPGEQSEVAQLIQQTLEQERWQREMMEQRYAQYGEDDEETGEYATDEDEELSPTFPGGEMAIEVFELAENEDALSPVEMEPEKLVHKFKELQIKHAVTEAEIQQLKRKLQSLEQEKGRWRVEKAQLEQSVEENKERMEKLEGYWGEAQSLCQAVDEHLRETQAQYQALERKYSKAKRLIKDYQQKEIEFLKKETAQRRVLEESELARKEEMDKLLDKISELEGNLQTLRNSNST

These are yes or no findings as the source states them, for the method shown. Binding seen in cells or lysates may run through a third protein. A yes stands for co-enrichment or nearness to the bait. Other partners may have been found. Tags and fused reporters may be left off the sequences shown.

This assay addresses T1, GFP-DDHD2 (pEGFP-C1-DDHD2^WT) (UniProt O94830).
T1 sequence: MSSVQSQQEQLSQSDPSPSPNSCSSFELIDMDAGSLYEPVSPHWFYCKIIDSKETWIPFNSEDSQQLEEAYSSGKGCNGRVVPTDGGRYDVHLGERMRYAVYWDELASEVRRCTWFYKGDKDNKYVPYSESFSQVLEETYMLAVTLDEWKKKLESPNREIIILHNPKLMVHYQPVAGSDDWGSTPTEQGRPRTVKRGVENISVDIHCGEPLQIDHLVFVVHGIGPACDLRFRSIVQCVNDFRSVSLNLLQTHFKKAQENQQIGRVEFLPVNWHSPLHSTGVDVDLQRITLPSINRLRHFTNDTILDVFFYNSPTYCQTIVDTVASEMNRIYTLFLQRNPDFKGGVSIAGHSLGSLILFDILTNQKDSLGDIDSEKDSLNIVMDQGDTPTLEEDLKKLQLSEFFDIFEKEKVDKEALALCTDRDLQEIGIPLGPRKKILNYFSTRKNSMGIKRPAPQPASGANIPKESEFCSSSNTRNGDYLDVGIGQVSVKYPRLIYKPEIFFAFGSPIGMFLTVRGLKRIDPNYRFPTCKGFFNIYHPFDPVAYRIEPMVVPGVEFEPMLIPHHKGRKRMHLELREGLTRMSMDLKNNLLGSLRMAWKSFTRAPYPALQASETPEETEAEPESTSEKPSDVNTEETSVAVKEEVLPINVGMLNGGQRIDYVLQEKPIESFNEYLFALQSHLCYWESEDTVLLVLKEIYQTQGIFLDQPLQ
As to the kind of experiment: affinity purification with mass spectrometry; anti-GFP magnetic beads on lysate (0.5% NP-40, 150 mM NaCl) of PC12 cells transfected with GFP-tagged DDHD2, resting state; tryptic digest, untargeted high-resolution tandem MS (HRMS), 1% FDR; proteins found in non-GFP process controls removed.

Consider “Syntaxin-binding protein 1 (STXBP1), endogenous in PC12 cells (from UniProt P61765 1-594)”, for which the binding result is listed as “binds”.
“Ppp1r9b, endogenous in PC12 cells (from UniProt O35274 1-817)”: the binding result is listed as “binds”.
